Measured values: publication doi:10.1101/2024.02.14.580406

Assays:
[1] = target: PEAK2 homodimer (BiCAP: V1-PEAK2 with V2-PEAK2); assay: affinity purification with mass spectrometry
[2] = target: PEAK1 homodimer (BiCAP: V1-PEAK1 with V2-PEAK1) (human); assay: affinity purification with mass spectrometry

Binder	binding [1]	binding [2]
FARP1 (protein, UniProt Q9Y4F1 1-1045) MGEIEQRPTPGSRLGAPENSGISTLERGQKPPPTPSGKLVSIKIQMLDDTQEAFEVPQRAPGKVLLDAVCNHLNLVEGDYFGLEFPDHKKITVWLDLLKPIVKQIRRPKHVVVKFVVKFFPPDHTQLQEELTRYLFALQVKQDLAQGRLTCNDTSAALLISHIVQSEIGDFDEALDREHLAKNKYIPQQDALEDKIVEFHHNHIGQTPAESDFQLLEIARRLEMYGIRLHPAKDREGTKINLAVANTGILVFQGFTKINAFNWAKVRKLSFKRKRFLIKLRPDANSAYQDTLEFLMASRDFCKSFWKICVEHHAFFRLFEEPKPKPKPVLFSRGSSFRFSGRTQKQVLDYVKEGGHKKVQFERKHSKIHSIRSLASQPTELNSEVLEQSQQSTSLTFGEGAESPGGQSCRRGKEPKVSAGEPGSHPSPAPRRSPAGNKQADGAASAPTEEEEEVVKDRTQQSKPQPPQPSTGSLTGSPHLSELSVNSQGGVAPANVTLSPNLSPDTKQASPLISPLLNDQACPRTDDEDEGRRKRFPTDKAYFIAKEVSTTERTYLKDLEVITSWFQSTVSKEDAMPEALKSLIFPNFEPLHKFHTNFLKEIEQRLALWEGRSNAQIRDYQRIGDVMLKNIQGMKHLAAHLWKHSEALEALENGIKSSRRLENFCRDFELQKVCYLPLNTFLLRPLHRLMHYKQVLERLCKHHPPSHADFRDCRAALAEITEMVAQLHGTMIKMENFQKLHELKKDLIGIDNLVVPGREFIRLGSLSKLSGKGLQQRMFFLFNDVLLYTSRGLTASNQFKVHGQLPLYGMTIEESEDEWGVPHCLTLRGQRQSIIVAASSRSEMEKWVEDIQMAIDLAEKSSSPAPEFLASSPPDNKSPDEATAADQESEDDLSASRTSLERQAPHRGNTMVHVCWHRNTSVSMVDFSIAVENQLSGNLLRKFKNSNGWQKLWVVFTNFCLFFYKSHQDNHPLASLPLLGYSLTIPSESENIQKDYVFKLHFKSHVYYFRAESEYTFERWMEVIRSATSSASRPHVLSHKESLVY	binds	–
SPRY4 (protein, UniProt Q9C004 1-299) MEPPIPQSAPLTPNSVMVQPLLDSRMSHSRLQHPLTILPIDQVKTSHVENDYIDNPSLALTTGPKRTRGGAPELAPTPARCDQDVTHHWISFSGRPSSVSSSSSTSSDQRLLDHMAPPPVADQASPRAVRIQPKVVHCQPLDLKGPAVPPELDKHFLLCEACGKCKCKECASPRTLPSCWVCNQECLCSAQTLVNYGTCMCLVQGIFYHCTNEDDEGSCADHPCSCSRSNCCARWSFMGALSVVLPCLLCYLPATGCVKLAQRGYDRLRRPGCRCKHTNSVICKAASGDAKTSRPDKPF	binds	–
PLCγ1 (enzyme, UniProt P19174 1-1290) MAGAASPCANGCGPGAPSDAEVLHLCRSLEVGTVMTLFYSKKSQRPERKTFQVKLETRQITWSRGADKIEGAIDIREIKEIRPGKTSRDFDRYQEDPAFRPDQSHCFVILYGMEFRLKTLSLQATSEDEVNMWIKGLTWLMEDTLQAPTPLQIERWLRKQFYSVDRNREDRISAKDLKNMLSQVNYRVPNMRFLRERLTDLEQRSGDITYGQFAQLYRSLMYSAQKTMDLPFLEASTLRAGERPELCRVSLPEFQQFLLDYQGELWAVDRLQVQEFMLSFLRDPLREIEEPYFFLDEFVTFLFSKENSVWNSQLDAVCPDTMNNPLSHYWISSSHNTYLTGDQFSSESSLEAYARCLRMGCRCIELDCWDGPDGMPVIYHGHTLTTKIKFSDVLHTIKEHAFVASEYPVILSIEDHCSIAQQRNMAQYFKKVLGDTLLTKPVEISADGLPSPNQLKRKILIKHKKLAEGSAYEEVPTSMMYSENDISNSIKNGILYLEDPVNHEWYPHYFVLTSSKIYYSEETSSDQGNEDEEEPKEVSSSTELHSNEKWFHGKLGAGRDGRHIAERLLTEYCIETGAPDGSFLVRESETFVGDYTLSFWRNGKVQHCRIHSRQDAGTPKFFLTDNLVFDSLYDLITHYQQVPLRCNEFEMRLSEPVPQTNAHESKEWYHASLTRAQAEHMLMRVPRDGAFLVRKRNEPNSYAISFRAEGKIKHCRVQQEGQTVMLGNSEFDSLVDLISYYEKHPLYRKMKLRYPINEEALEKIGTAEPDYGALYEGRNPGFYVEANPMPTFKCAVKALFDYKAQREDELTFIKSAIIQNVEKQEGGWWRGDYGGKKQLWFPSNYVEEMVNPVALEPEREHLDENSPLGDLLRGVLDVPACQIAIRPEGKNNRLFVFSISMASVAHWSLDVAADSQEELQDWVKKIREVAQTADARLTEGKIMERRKKIALELSELVVYCRPVPFDEEKIGTERACYRDMSSFPETKAEKYVNKAKGKKFLQYNRLQLSRIYPKGQRLDSSNYDPLPMWICGSQLVALNFQTPDKPMQMNQALFMTGRHCGYVLQPSTMRDEAFDPFDKSSLRGLEPCAISIEVLGARHLPKNGRGIVCPFVEIEVAGAEYDSTKQKTEFVVDNGLNPVWPAKPFHFQISNPEFAFLRFVVYEEDMFSDQNFLAQATFPVKGLKTGYRAVPLKNNYSEDLELASLLIKIDIFPAKENGDLSPFSGTSLRERGSDASGQLFHGRAREGSFESRYQQPFEDFRISQEHLADHFDSRERRAPRRTRVNGDNRL	no binding	no binding

Results are given in words; binding and its absence hold for the method and conditions named. Binding seen in cells or lysates may run through a third protein. Here binding means that the protein was enriched with, or labelled near, the bait; the list need not be complete. A no says only that the protein was not detected with the bait.
